From patent publication US5834428A (1149336 Ontario Inc., priority 1996, dated 1998)
Some peptides are written in HELM: one residue between dots, names in brackets for other building blocks, links after the first $.

Test: peptide made by a vendor (peptide synthesis; chloromethyl (Merrifield) resin for C-terminal acids; 4-methylbenzhydrylamine (MBHA) resin for C-terminal amides; 0.5 me; DCC/HOBt)
Details: whole synthesis, analytical RP-HPLC, Vydac C18, 215 nm, two solvent systems, scale of the general procedure 3 mmole, acetate salts prepared from TFA salts

PEPTIDE1{H.A.D.G.S.F.S.D.E.M.N.T.I.L.D.N.L.A.T.R.D.F.I.N.W.L.I.Q.T.K.I.T.D}$$$$V2.0
final HPLC purity: 95%
